Some of the results follow. Further columns of the screen follow, without active or inactive calls. The list favours compounds with an active or inconclusive main result. Potencies come from curve fits of mixed quality, noted in brackets.
Test: qHTS Assay to Find Inhibitors of Chronic Active B-Cell Receptor Signaling
Details: ABC-DLBCL IkBa-CBG/CBR reporter, luminescence ratio (green luciferase fused to IkBa over red control in TMD8 lymphoma cells), 4 h
How it was run: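 Cell line TMD8 (human ABC DLBCL), stably expressing tet-inducible CBG68-IkBa fusion and CBR; IMDM/0.5% FBS; cpd up to 46 uM; dox induction, 4 h, 37C/5% CO2; dual luminescence; green/red ratio; MG132 control.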

[1] = measured here: CBR red luminescence, cell number
[2] = measured here: IkBa-CBG green luminescence

## O=C(Nc1ccccc1)C1=C[C@H](c2csc3ccccc23)C[C@H](OCc2ccc(CO)cc2)O1
[1]
  AC50: 11.2 µM [falling, partial curve]

## CCOC(=O)N1CCC(NC(=O)c2ccccc2C(=O)O)CC1
[1]
  AC50: 35.5 µM [rising, single point]

## Cc1cc(=O)oc2cc(NC(=O)c3cccc(F)c3)ccc12
[1]
  AC50: 0.1 µM [rising, full curve, poor fit]

## COc1cccc(-c2nnc(SCC(=O)Nc3ccc4c(c3)OCCO4)n2Cc2ccco2)c1
[1]
  AC50: 32.6 µM [falling, partial curve, poor fit]

## COc1cc(C2C3C(=O)N(Cc4ccccc4)C(=O)C3ON2c2ccccc2)cc(OC)c1OC (stereo not given)
[1]
  AC50: 11.2 µM [rising, partial curve, poor fit]

## CC(=O)Nc1cccc(Oc2nc(-c3ccccn3)nc3ccccc23)c1
[1]
  AC50: 35.5 µM [falling, partial curve, poor fit]

## Cc1nc(NCCc2ccccc2)c2nnn(Cc3ccccc3)c2n1
[1]
  AC50: 10 µM [rising, partial curve]

## O=C(c1ccc(F)cc1)N1CCC(c2ccccc2)C1 (stereo not given)
[1]
  AC50: 14.1 µM [falling, single point]

## O=c1c2ccccc2oc2nc(-c3cccs3)n(CCc3ccccc3)c(=O)c12
[1]
  AC50: 1.64 µM [falling, full curve, poor fit]

## NC(=O)c1ccc(NC(=O)CS(=O)(=O)c2cn(CC(=O)N3CCCC3)c3ccccc23)cc1
[1]
  AC50: 1.58 µM [rising, partial curve, poor fit]

## Cc1sc2c(c1C)C(=O)NC(c1cccc(O)c1)N2 (stereo not given)
[1]
  AC50: 12.6 µM [falling, partial curve]

## CC1CCCCN1S(=O)(=O)c1ccc(S(=O)(=O)N(Cc2ccccc2)Cc2ccco2)cc1 (stereo not given)
[1]
  AC50: 9.2 µM [rising, partial curve]

## COc1cc(OC)cc(C(=O)Nc2ccc3c(c2)N(C2CCCC2)C(=O)c2ccccc2S3)c1
[1]
  AC50: 12.6 µM [falling, partial curve, poor fit]

## Cc1nc(Nc2nc(CSc3nc4ccccc4[nH]3)cc(=O)[nH]2)nc2ccccc12
[1]
  AC50: 13 µM [falling, partial curve, poor fit]

## CC(c1ccccc1)N1C(=O)/C(=C/c2ccncc2)SC1=S (stereo not given)
[1]
  AC50: 12.6 µM [falling, single point]

## O=C(O)CCc1ccc(-c2cccs2)n1NC(=O)c1ccccc1Br
[1]
  AC50: 4.61 µM [falling, partial curve, poor fit]

## CC(=O)c1cccc(NC(=O)N2CCCC2C(=O)NCc2ccc(C)cc2)c1 (stereo not given)
[1]
  AC50: 25.9 µM [rising, single point]

## COc1ccc(OC)c(C2(O)CSC(=Nc3cccnc3)N2Cc2ccco2)c1 (stereo not given)
[1]
  AC50: 35.5 µM [falling, partial curve, poor fit]

## COc1ccc(/C=C2\SC(=S)N(CCC(=O)NC3C=CS(=O)(=O)C3)C2=O)cc1 (stereo not given)
[1]
  AC50: 0.355 µM [falling, full curve]

## Cc1ccc(-c2nnc(SCC(C)C)n2C)cc1
[1]
  AC50: 2.82 µM [rising, partial curve, poor fit]

## Nc1ccc2c(c1)OCCOCCOCCOCCOCCO2
[1]
  AC50: 5.62 µM [falling, single point]

## COc1ccc(OC)c(/C=N/NC(=O)c2cc3c(OC)cc(OC)cc3[nH]2)c1
[1]
  AC50: 17.8 µM [falling, partial curve, poor fit]

## O=C(COc1cccnc1[N+](=O)[O-])c1c[nH]c2ccccc12
[1]
  AC50: 11.2 µM [falling, partial curve, poor fit]

## C/C(=N\NC(=O)c1ccc(F)cc1)c1cccc(NC(=O)c2ccco2)c1
[1]
  AC50: 35.5 µM [falling, single point]

## O=C(Nc1ccc(N2CCC(c3ccccc3)C2)c(C(=O)O)c1)c1ccc(Cl)cc1 (stereo not given)
[1]
  AC50: 6.31 µM [rising, full curve, poor fit]
[2]
  AC50: 35.5 µM [falling, single point]

## c1ccc(N2CCN(c3cnc4ccccc4n3)CC2)cc1
[1]
  AC50: 16.4 µM [falling, single point]

## CCOc1ccc(NC(=O)N(c2ccccc2)c2ccccc2)cc1
[1]
  AC50: 12.6 µM [rising, single point]

## Cc1cccc(/C=C(\C#N)C(=O)Nc2ccccn2)c1
[1]
  AC50: 3.55 µM [rising, single point]

## CC1CCC(NC(=O)CC2Oc3ccccc3NC2=O)CC1 (stereo not given)
[1]
  AC50: 23.1 µM [falling, partial curve, poor fit]

## CCC(=O)Oc1ccc(C/C(=N\O)c2ccc(O)cc2O)o1
[1]
  AC50: 16.4 µM [falling, single point]

## CCn1c(=O)c(C(=O)Nc2ccccc2F)c(O)c2ccccc21
[1]
  AC50: 0.501 µM [falling, full curve]

## Cc1nnc2sc(SCC(=O)N3CCC(C)CC3)nn2c1=O
[1]
  AC50: 12.6 µM [falling, partial curve, poor fit]

## Cc1ccncc1C(N)=O
[1]
  AC50: 0.891 µM [rising, full curve, poor fit]

## Cc1cc(C)n(-c2ccc(C(=O)NC(C)C)cc2)n1
[1]
  AC50: 6.31 µM [rising, partial curve]

## COCCCNC(=O)CCc1nc(-c2ccccc2)no1
[1]
  AC50: 29.1 µM [rising, single point]

## COCCn1c(COc2ccc(OC)cc2)nc2ccccc21
[1]
  AC50: 1.3 µM [rising, full curve, poor fit]

## O=C(Nc1cnn(Cc2ccc(Cl)c(Cl)c2)c1)c1nc2ncccn2n1
[1]
  AC50: 8.91 µM [falling, partial curve, poor fit]

## O=NNc1nc2ccccc2n1Cc1ccccc1
[1]
  AC50: 10 µM [falling, partial curve, poor fit]

## CCOc1ccc(NC(=S)N(CCc2c(C)[nH]c3ccccc23)Cc2cccnc2)cc1
[2]
  AC50: 18.4 µM [falling, partial curve, poor fit]

## CCc1ccc(Nc2n[n+](-c3ccccc3)c(-c3ccc(OCc4ccccc4)cc3)s2)cc1
[1]
  AC50: 35.5 µM [falling, single point]

## CSc1ncccc1C(=O)OCC(=O)NCCc1ccccc1
[1]
  AC50: 7.31 µM [rising, partial curve, poor fit]

## CC(Sc1nc2ccc(Br)cc2[nH]1)C(=O)O (stereo not given)
[1]
  AC50: 10.3 µM [rising, single point]

## O=C(NCCCCCCNC(=O)c1ccc(Br)s1)c1ccc(Br)s1
[1]
  AC50: 20.6 µM [rising, partial curve]

## CS(=O)(=O)c1ccc2nc(NC(=O)CCNC(=O)c3ccc(Cl)cc3)sc2c1
[1]
  AC50: 2.91 µM [rising, full curve]

## O=S(=O)(c1ccc2c(c1)OCCO2)N1CCN(S(=O)(=O)c2ccc3c(c2)OCCO3)CC1
[1]
  AC50: 32.6 µM [falling, single point]

## CCN1CCN(c2ccc(NC(=O)c3cc4ccccc4cc3OC)cc2C)CC1
[1]
  AC50: 32.6 µM [falling, single point]

## COCCNCc1ccccc1[N+](=O)[O-]
[1]
  AC50: 0.00517 µM [falling, full curve, poor fit]

## O=C(O)C1CCN(C(=O)c2ccc3c(c2)OCO3)CC1
[1]
  AC50: 35.5 µM [rising, single point]

## CC(C(=O)Nc1ccc2c(c1)OCO2)c1ccc([N+](=O)[O-])cc1 (stereo not given)
[1]
  AC50: 0.251 µM [falling, full curve, poor fit]

## O=C(NNc1nc(-c2ccccc2)cs1)c1ccc(F)cc1
[1]
  AC50: 20 µM [falling, single point]

## CN1C(=O)[C@H](Cc2ccc([N+](=O)[O-])cc2)NC1=S
[1]
  AC50: 0.708 µM [falling, full curve, poor fit]

## CCn1c(CSc2nc(C)cc(C)n2)nnc1SCC(=O)Nc1cccc2ccccc12
[1]
  AC50: 29.1 µM [falling, single point]

## O=C(CN(c1ccccc1)S(=O)(=O)c1ccccc1[N+](=O)[O-])Nc1ccccc1C(=O)N1CCOCC1
[1]
  AC50: 35.5 µM [falling, partial curve, poor fit]

## Cc1ccc(NC(=O)c2cc(S(=O)(=O)N3CCc4ccccc43)cn2C)cc1C
[1]
  AC50: 0.282 µM [falling, partial curve, poor fit]

## Nc1nc(N)nc(-c2cc([N+](=O)[O-])ccc2O)n1
[1]
  AC50: 2.91 µM [falling, full curve]

## O=C(O)c1ccc(N/N=C/c2ccc(OC(=O)c3cccc(Cl)c3)cc2)cc1
[1]
  AC50: 0.0891 µM [falling, full curve, poor fit]

## O=C(O)CC1Sc2ccccc2NC1=O (stereo not given)
[1]
  AC50: 35.5 µM [rising, single point]

## Cc1sc2nc(CN3CCCCC3)nc(Cl)c2c1C
[1]
  AC50: 9.2 µM [falling, partial curve, poor fit]

## Cc1ccc(C)c(SCc2nc3sc(C(=O)O)c(C)c3c(=O)[nH]2)c1
[1]
  AC50: 0.631 µM [falling, full curve]

## CCCN1C(=O)c2ccccc2NC1c1ccc(Br)cc1 (stereo not given)
[1]
  AC50: 12.6 µM [falling, single point]

## CCOC(=O)C1CCN(C(=O)c2ccc(CNS(=O)(=O)c3ccc(C)cc3)cc2)CC1
[1]
  AC50: 35.5 µM [rising, partial curve, poor fit]

## N#Cc1c(NC(=O)CSc2nc(-c3ccco3)cc(C(F)(F)F)n2)sc2c1CCCC2
[1]
  AC50: 0.291 µM [rising, full curve, poor fit]

## COC(=O)CSc1ncccc1-c1nc2ccccc2[nH]1
[1]
  AC50: 0.0146 µM [falling, full curve, poor fit]

## COc1ccc(/C=C(/NC(=O)c2ccccc2)C(=O)N/N=C/c2sccc2C)cc1
[1]
  AC50: 25.9 µM [rising, single point]
